Source: patent publication US20140378529A1, “COLLATERAL GENE INACTIVATION BIOMARKERS AND TARGETS FOR CANCER THERAPY” (Board Regents, The University of Texas System, priority 2011, published 2014)
For part of these data: At least one structure is not confirmed: it was looked up by name or label, or the drawing left a doubt. Some of these results come from one statement about several compounds together.

Key:
enolase 2 protein = assay: shRNA knockdown of ENO2 expression (western blot); assay type: cell-based, human; conditions: doxycycline-inducible TRIPZ; A1207, U87, LN319, D423-MG
Excerpt: Two of these hairpins were in the pLKO.1 vector (ShENO2-1 and shENO2-2) and the remaining two were in the Expression Arrest GIPZ (shENO2-3) and TRIPZ (shENO2-4) shRNAmir vectors (Open Biosystems, Huntsville, Ala.). The hairpin in the GIPZ vector was cloned into the TRIPZ vector using a protocol provided by the manufacturer. The TRIPZ vector is a doxycycline inducible system with a Red fluorescent protein reporter which is only expressed upon doxycycline induction. Recombinant lentivirus was produced by transient transfection of 293T cells following a standard protocol. Briefly, 72 μg of the shRNA plasmid, 54 μg of Delta 8.9 and 18 μg of VSVG plasmids were transfected using Fugene® (Roche, Indianapolis, Ind.) into 293T cells plated in 245 mm2 dishes. Viral supernatant was collected 72 hours after transfection, concentrated by centrifugation at 23,000 rpm and resuspended in cell growth medium. For transduction, viral solutions were added to cell culture medium containing 4 μg/mL polybrene; 48 hours after infection cells were selected using 2 μg/mL puromycin and tested for ENO2 knockdown by western blot.
The hairpin in the GIPZ vector was cloned into the TRIPZ vector using a protocol provided by the manufacturer. The TRIPZ vector is a doxycycline-inducible system with a red fluorescent protein reporter that is expressed only upon doxycycline induction. […]

ENO1-null D423-MG cells = assay: Relative growth with receptor tyrosine kinase inhibitors or rapamycin; assay type: cell-based, human; conditions: rapamycin

| Compound | reduction in enolase 2 protein levels (enolase 2 protein) [%] | sensitivity of ENO1-null cells versus ENO1 WT cells (ENO1-null D423-MG cells) |
| --- | --- | --- |
| 5′-CGGCCTTCAACGTGATCAA-3′ (expressed or natural sequence) [shENO2-3] | > 70 | – |
| 5′-GGGACTGAGAACAAATCCA-3′ (expressed or natural sequence) [shENO2-4] | > 70 | – |
| CO[C@H]1C[C@@H]2CC[C@@H](C)[C@@](O)(O2)C(=O)C(=O)N2CCCC[C@H]2C(=O)O[C@H]([C@H](C)C[C@@H]2CC[C@@H](O)[C@H](OC)C2)CC(=O)[C@H](C)/C=C(\C)[C@@H](O)[C@@H](OC)C(=O)[C@H](C)C[C@H](C)/C=C/C=C/C=C/1C [rapamycin] | – | do not show any greater sensitivity |
